Measurements: patent US20050009151A1, “Methods for the stereospecific and enantiomeric enrichment of beta-amino acids” (Pharmacia Corporation, priority 2003, published 2005)
At least one compound was matched to its structure with a doubt left.

Tested on: β-aminotransferase from Alcaligenes eutrophus
Test: Synthesis of β-amino acid from β-keto acid with cell lysate from Alcaligenes eutrophus
Format: biochemical
Details: approximately 45 mM substrate, approximately 84 mM alanine, 47 hours
Experimental: A buffer consisting of 0.3M Tricine, 15 mM MgSO4, enough pyridoxal phosphate to impart a pale yellow color and 0.3M sodium glutamate (for deamination reactions) or 0.3 M 2-ketoglutarate monopotassium salt (for synthesis reactions) was prepared.
[…] Reactions were typically run at 1 ml scale with gentle shaking at 26° C.
10 ul of 2N HCl was added to a plastic screw capped vial and 90ul of sample was then added. The pH of the mixture confirmed to be below 4 and the mixture was centrifuged in a microcentrifuge at maximum speed for about 2 minutes to remove precipitated materials.
Samples were derivatized using Marfey's reagent, N•-(2,4-dinitro-5-fluorophenyl)-L-alaninamide. A stock solution of 10 mg/mL in acetone of this reagent was prepared. Either 20 or 40 ul of bioconversion sample was added to 20 ul 1.3 M KHCO3. To this was added 80 ul of the stock reagent solution, the vial sealed tightly, and heated at 70° C. for 10 minutes. As needed, after cooling to room temperature, the heated samples were centrifuged to remove solids. The supernatants were analyzed using an Eclipse XDB-C8 column, 4.6×150 mm, eluting with methanol gradient in water, from 50% methanol to 100% methanol. Both solvents were acidified with 0.1% trifluoroacetic acid. […]

For `O=C(O)CC(=O)c1ccccc1F` [3-(2-Fluorobenzene)beta-oxopropanoic acid], the “ratio of early eluting to later eluting peak” value was “about 2.5:1”.
